These results are taken from US11220671B2, “Methods for the maturation of cardiomyocytes on amniotic fluid cell-derived ECM, cellular constructs, and uses for cardiotoxicity and proarrhythmic screening of drug compounds” (STEMBIOSYS, INC., priority 2019, dated 2022).

For the data set, the system named is mature cardiomyocytes (hiPSC-CMs) on AFC-ECM. On the procedure:
The cardiotoxicity and/or proarrhythmia testing can be conducted using any type of equipment suitable for measuring such activity. In some embodiments, the cellular constructs of monolayers of mature cardiomyocytes on AFC-ECM are prepared as described supra. After the maturation process (generally 7 days or less), the electrophysiology of each well is observed using a plate reader. A suitable voltage sensitive or calcium sensitive fluorescent dye is loaded into each well. Non-limiting voltage sensitive dyes include FluoVolt™ dye commercially available from ThermoFisher. In some embodiments, the plate reader can rely on a suitable high spatiotemporal CCD camera combined with suitable lighting, such as light emitting diodes (LEDs), of the appropriate wavelength to excite each dye. Such high spatiotemporal CCD cameras are commercially available from SciMeasure. […] Each plate is centered under the camera system, lighting is switched on and camera acquisition is initiated and electrophysiological activity is recorded. […] After baseline readings are made, the drug to be tested is added to the wells and the effects are recorded. Spontaneous activity is recorded for a sufficient period of time to obtain images, e.g. at least 10 seconds. […] Images are analyzed and action potential duration, conduction velocity, beat rate and activation patterns can be quantified using image analysis software. […]

Consider `COC(=O)C1=C(C)NC(C)=C(C(=O)OC)C1c1ccccc1[N+](=O)[O-]` [Nifedipine], for which the “APD90 Prolongation? @10X ETPC” value is “No,” and the “Arrhythmia Detected?” value is listed as “Yes, Q”.
